Values quoted from earlier work in patent US20070249501A1 (priority 2004, published 2007).
For at least one compound, name, drawing or mass did not settle the structure.

Conditions: cited from earlier work

ClCCBr [BCE, ethylene bromochloride]
Vapor Pr.: 10 mm Hg
